Columns and labels:
5HT1A receptor = target: T1, 5HT1A receptor (Rattus norvegicus, UniProt P19327); assay: 5HT1A receptor binding assay (3H-8-OH-DPAT, rat striatum membrane); conditions: test compound final concentration 10^−5 M, read-out: 5HT1A Inhibition rate (%)
T1 construct: Rats were decapitated on ice; from tissue; host or cells: rat brain striatum
T1 sequence (P19327 1-422): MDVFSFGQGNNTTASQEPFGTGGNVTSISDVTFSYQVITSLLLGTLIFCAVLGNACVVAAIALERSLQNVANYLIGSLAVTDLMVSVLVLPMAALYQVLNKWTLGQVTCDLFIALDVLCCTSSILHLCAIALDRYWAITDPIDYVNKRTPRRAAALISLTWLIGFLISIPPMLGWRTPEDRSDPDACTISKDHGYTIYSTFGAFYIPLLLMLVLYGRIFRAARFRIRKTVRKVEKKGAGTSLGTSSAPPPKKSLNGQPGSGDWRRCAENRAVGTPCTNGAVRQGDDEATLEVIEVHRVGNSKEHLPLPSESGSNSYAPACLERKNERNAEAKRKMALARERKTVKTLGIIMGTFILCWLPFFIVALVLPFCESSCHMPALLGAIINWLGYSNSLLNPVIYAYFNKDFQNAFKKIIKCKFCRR
Method: Preparation of 5HT1A Membrane
Rats were decapitated on ice. […] Incubation at 37° C. was conducted for 10 min. […] Centrifugation was conducted at 12000 rpm, 4° C. for 20 min. […] Centrifugation was conducted and repeated 3 times.
(§1) Materials for the Receptor Binding Assay

5HT2C receptor = target: T2, 5HT2C receptor (Rattus norvegicus, UniProt P08909); assay: 5HT2C receptor binding assay ([3H]-mesulergine, rat striatum membrane); conditions: test compound final concentration 10^−5 M, read-out: 5HT2C Inhibition rate (%)
T2 construct: from tissue; host or cells: rat brain striatum
T2 sequence (P08909 33-460): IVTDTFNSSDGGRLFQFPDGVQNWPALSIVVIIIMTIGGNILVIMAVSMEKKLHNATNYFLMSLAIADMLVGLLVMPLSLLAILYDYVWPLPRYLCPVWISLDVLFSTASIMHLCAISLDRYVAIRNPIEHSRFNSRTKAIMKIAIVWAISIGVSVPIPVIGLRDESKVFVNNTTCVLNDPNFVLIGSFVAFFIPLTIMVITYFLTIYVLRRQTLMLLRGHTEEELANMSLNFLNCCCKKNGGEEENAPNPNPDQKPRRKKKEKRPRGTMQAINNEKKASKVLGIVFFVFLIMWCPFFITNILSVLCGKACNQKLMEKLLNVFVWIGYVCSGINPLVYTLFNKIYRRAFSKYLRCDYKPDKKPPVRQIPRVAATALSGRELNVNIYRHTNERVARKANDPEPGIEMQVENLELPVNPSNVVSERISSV
Method: Preparation of 5HT2C Membrane
Rats were decapitated on ice. […] Centrifugation was conducted.
as §1

[1] = system: α1 norepinephrine receptor; assay: α1 norepinephrine receptor binding assay (3H-prazosin, rat cortex membrane); conditions: test compound final concentration 10^−5 M
Source text: Preparation of Receptor Membrane of Norepinephrine
α1 Norepinephrine Receptor Binding Assay

## Cc1nc2n(c(=O)c1CCN1CCC(c3noc4cc(F)ccc34)CC1)CCCC2 [risperidone]
5HT1A receptor
  inhibition at 10 µM: 85.2%
5HT2C receptor
  inhibition at 10 µM: 105%
[1]
  α1 Inhibition rate (%): 96.10%
